From patent publication US20120107297A1
Results are given in words; binding and its absence hold for the method and conditions named. For some of these results: Binding seen in cells or lysates may run through a third protein. Some binding calls cover weakened binding; strength is not graded here.

Sequences of proteins named here, by UniProt entry; tags and fusion partners are left off.
UniProt P40337: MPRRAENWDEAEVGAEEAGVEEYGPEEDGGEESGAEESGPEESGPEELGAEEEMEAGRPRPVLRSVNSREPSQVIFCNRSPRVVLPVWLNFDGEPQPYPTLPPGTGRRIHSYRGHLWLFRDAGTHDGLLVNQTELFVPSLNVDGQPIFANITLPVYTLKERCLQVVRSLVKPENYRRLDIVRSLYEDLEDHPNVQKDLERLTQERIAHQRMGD
UniProt Q16763: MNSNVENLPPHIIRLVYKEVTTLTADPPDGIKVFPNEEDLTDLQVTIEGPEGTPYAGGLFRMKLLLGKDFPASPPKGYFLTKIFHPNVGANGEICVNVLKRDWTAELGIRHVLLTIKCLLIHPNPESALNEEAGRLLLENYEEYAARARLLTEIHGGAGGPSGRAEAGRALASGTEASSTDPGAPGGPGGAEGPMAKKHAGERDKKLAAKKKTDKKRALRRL
UniProt P61077: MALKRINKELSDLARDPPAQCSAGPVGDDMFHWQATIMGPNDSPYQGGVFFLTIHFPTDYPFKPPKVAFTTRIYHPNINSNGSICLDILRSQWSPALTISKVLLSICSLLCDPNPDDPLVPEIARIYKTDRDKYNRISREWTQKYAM

How the values were obtained:
[1] = biological target: VHL (endogenous von Hippel-Lindau protein) (human) (UniProt P40337); assay: anti-Flag immunoprecipitation from HEK293T lysate, Western blot
[2] = biological target: VHL (endogenous von Hippel-Lindau protein) (human) (UniProt P40337); assay: sucrose density gradient centrifugation of lysate of CAKI cells transfected with F-UCP, Western blot of fractions
[3] = biological target: VHL (endogenous von Hippel-Lindau protein) (human) (UniProt P40337); assay: Western blots of FIG. 4-FIG. 6 (immunoprecipitation of over-expressed protein)
[4] = biological target: GST-VHL (UniProt P40337); assay: GST pull-down from 293-F-UCP cell lysate, Western blot with anti-Flag
[5] = biological target: GST-VHL (UniProt P40337); assay: Western blots of FIG. 4-FIG. 6 (GST pull-down)
[6] = biological target: VHL (endogenous von Hippel-Lindau protein) (human) (UniProt P40337); assay: sucrose density gradient centrifugation, Western blot (FIG. 8b)
[7] = biological target: HA-VHL (UniProt P40337); assay: GST pull-down from 293-HA-VHL cell lysate, Western blot with anti-HA
[8] = biological target: VHL (endogenous von Hippel-Lindau protein) (human) (UniProt P40337); assay: sucrose density gradient centrifugation of HepG2 lysate, Western blot of fractions
[9] = biological target: VHL (endogenous von Hippel-Lindau protein) (human) (UniProt P40337); assay: Western blots of FIG. 4-FIG. 6 (co-immunoprecipitation of endogenous proteins)
[10] = biological target: VHL (endogenous von Hippel-Lindau protein) (human) (UniProt P40337); assay: co-immunoprecipitation with anti-VHL or anti-UCP from HLK3 and Ck-K1 lysates, Western blot
[11] = biological target: VHL (endogenous von Hippel-Lindau protein) (human) (UniProt P40337); assay: sucrose density gradient centrifugation, Western blot (FIG. 7)
[12] = biological target: VHL (endogenous von Hippel-Lindau protein) (human) (UniProt P40337); assay: summary sentence citing FIG. 4-FIG. 7
[13] = biological target: VHL (endogenous von Hippel-Lindau protein) (human) (UniProt P40337); assay: conclusion of Example 1 (immunoprecipitation, GST pull-down, sucrose gradient)

Measured: binding

Flag-UCP (from UniProt Q16763 1-222) (enzyme)
binds: [1] | [2] | [3] | [4] | [5] | [6]

GST-UbCH5C (from UniProt P61077 1-147) (enzyme)
binds: [7]

UCP (endogenous E2EPF ubiquitin carrier protein) (from UniProt Q16763 1-222) (enzyme)
binds: [8] | [9] | [10] | [11] | [12] | [13]
